No constants are given. Whether binding was seen depends on the method and setting. Some results given as binding are weak or reduced against the parent protein; the word gives no strength.
Legend:
[1] = target: cyno CD47-His protein (cynomolgus); experiment: ELISA on cyno CD47-His protein
[2] = target: cyno CD47-His protein (cynomolgus); experiment: ELISA (FIG. 3B)

binding [1]: binds | binding [2]: binds
B1: B5714 (antibody, V domains shown)
VH: QIQLQQSGPELVKPGASVKISCKASGYTFTDYYINWVKQKPGQGPEWIGWIYPGSANTKYSEKVKGKATLTVDTSSTTAYMQLSSLTSDDTAVYFCTRNDPLITAVVPDYWGQGTTLTVSS
VL: DIVMSQSPSSLAVSVGEKVTMSCRSSQSRLYSSNQKNYLAWYQQKPGQSPKLLIYWASTRESGVPDRFTGSGSGTDFTLTISSVKAEDLAVYYCQQYYNYPPTFGGGTKLEIK

— patent US20220127357A1
